Test results: publication PMC12419110
Changes are numbered by the printed parent chain. These are yes or no findings as the source states them, for the method shown. Binding seen in cells or lysates may run through a third protein. Some binding calls cover weakened binding; strength is not graded here. Where a sequence is shown, tags or fusion partners need not be part of it.

B1: never in mitosis gene A related kinase 1 (NEK1) (protein, UniProt P51954 1-1203)
chain: MEKYVRLQKIGEGSFGKAVLVKSTEDGRHYVIKEINISRMSDKERQESRREVAVLANMKHPNIVQYKESFEENGSLYIVMDYCEGGDLFKRINAQKGALFQEDQILDWFVQICLALKHVHDRKILHRDIKSQNIFLTKDGTVQLGDFGIARVLNSTVELARTCIGTPYYLSPEICENKPYNNKSDIWALGCVLYELCTLKHAFEAGNMKNLVLKIISGSFPPVSPHYSYDLRSLLSQLFKRNPRDRPSVNSILEKGFIAKRIEKFLSPQLIAEEFCLKTLSKFGPQPLPGKRPASGQGVSSFVPAQKITKPAAKYGVPLTYKKYGDKKLLEKKPPPKHKQAHQIPVKKMNSGEERKKMSEEAAKKRRLEFIEKEKKQKDQIRFLKAEQMKRQEKQRLERINRAREQGWRNVLRAGGSGEVKASFFGIGGAVSPSPCSPRGQYEHYHAIFDQMQRLRAEDNEARWKGGIYGRWLPERQKGHLAVERANQVEEFLQRKREAMQNKARAEGHVVYLARLRQIRLQNFNERQQIKAKLRGENKEADGTKGQEATEETDMRLKKMESLKAQTNARAAVLKEQLERKRKEAYEREKKVWEEHLVARVKSSDVPLPLELLETGGSPSKQQVKPVISVTSALKEVGLDGSLTDTQEEEMEKSNSAISSKREILRRLNENLKAQEDEKEKQHHSGSCETVGHKDEREYETENAISSDRKKWEMGGQLVIPLDAVTLDTSFSATEKHTVGEVIKLDSNGSPRKVWGKNPTDSVLKILGEAELQLQTELLENTSFKSEVYAEEENYKPLLTEEENLQCISKEINPSATVDSTETKSPKFTEVSPQMSEGNVEEPDDLETEVLQEPSSTHTDGSLPPVLNDVWTREKEAAKETELEDKVAVQQSEVCEDRIPGNVDQSCKDQRDPAVDDSPQSGCDVEKSVQPESIFQKVVHSKDLNLVQAVHCSPEEPIPIRSHSDSPPKTKSKNSLLIGLSTGLFDANNPKMLRTCSLPDLSKLFRTLMDVPTVGDVHQDSLEIDELEDEPIKEGPSDSEDTVFEETDTDLQELQASMEQLLREQPGDEYSEEEESVLKSSDVEQTARGTDAPDEEDNPSSESALNEEWHSDNSDAETTSECEYDSVFNHLEELRLHLEQEMGFEKFFEVYEKVKAIHEDEDENIEICSTIVENILGNEHQHLYAKILHLVMADGAYQEDNDE
B2: SPATA7 (protein, UniProt Q80VP2 1-582)
chain: MDGSRRVRATSVLPRYSPPCLFTGHLSTKSNAFCTDSSSLRLSTLQLVKNHMAIHYNKILSAKAAVDCSIPVSVNTSIKYADQQRREKLRKELARCEKEFKLSKSAMQTNSKMNSKFFVNSLQKPSGEPQDQDVFIEEMTRYPSFSKSLIPSSEGLHLSLPESSKMLMSGTQKHASTSPSRHSGCGHGCDRRPRSAHQFQVALAKTPSGDLLEKHSDLFSNKQSPFTPRTLKTEAKSFLSQYRYYTPAKRRKDFSDQRMEAETQTELSSFNSELGTAEKTSSKDSEVNINQVPNYTRNGAEDKIAPLPSQGQNLAWDSIQDGILQQSSERASCKLSTEFSPDSKIYSDEEELLYLSFMENVTDEILKLGLFSNRFLERLFERHIKKNKHHLEEGKMRYLLHGLKVDLGCISEEDPAKQKHFRMLNQLHFQKALISRENEFVSDEETVSHHERQQYQEALDMLSAVPKDENKMFSLPGEFLIPAHKVKHSEGVIIQQVNDETDNEASPWNENNPSVSDSVIDQETSVDVIEGDSDFERAETSRELCCLSTSLSPSGPFPSINGGSNHGKELSTLRIMGMSIED
B3: FBXO3 (protein, UniProt Q9DC63 1-480)
chain: MAAVEAETGLLTLESLPTDPLLLILSFVDYRDLINCCYVSRRLSQLSTHDPLWRRHCKKYWLISEEEKAGKSQCWRSLFIETYSDVGRYIDHYAAIKKAWRDLKKYLEPRCPRMVLSLKEGAREEDLDAVEAQIGCKLPDDYRCSYRIHNGQKLVVPGLLGSMALSNHYRSEDLLDVDTAAGGFQQRQGLKYCLPLTFCIHTGLSQYIAVEAAEGRNKNEVFYQCPDQMARNPAAIDMFIIGATFTDWFTSYVNNVVSGGFPIIRDQIFRYIHDPECVATTGDITVSVSTSFLPELSSVHPPHYFFTYRIRIEMSRDALPEKACQLDSRYWRITNAKGDVEEVQGPGVVGEFPIISPGRIYEYTSCTTFSTTSGYMEGYYTFHFLYFKDKVFNVAIPRFHMACPTFRVSIARLEMGPDEYEEMEEEAEEEEEEENDDSADMDESDESDADENESDEGEGEARRRRVFDVPIRRRRCSRLF

What follows are binders tested against T1, HA tagged R73P variant of mouse Cfap410 (endogenous knock-in) (mouse) (UniProt Q8C6G1) (assay: co-IP; anti-HA magnetic beads (50 ug) with 2 mg lysate of motor neuron cultures overnight at 4 C; lysis in 20 mM Tris pH 7.5, 150 mM NaCl, 1 mM EDTA, 1 mM EGTA, 1% Triton X-100; washed with PBS-Tween; immunoblot for NEK1, SPATA7 and FBXO3, densitometry normalised to HA).
T1 sequence: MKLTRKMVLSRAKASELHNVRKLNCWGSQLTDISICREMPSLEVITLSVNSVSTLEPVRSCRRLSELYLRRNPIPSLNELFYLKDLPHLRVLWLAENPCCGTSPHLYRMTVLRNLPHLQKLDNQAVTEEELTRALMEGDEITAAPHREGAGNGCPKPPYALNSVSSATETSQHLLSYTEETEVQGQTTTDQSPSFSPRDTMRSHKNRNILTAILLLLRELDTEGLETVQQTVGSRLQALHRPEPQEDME

Binder	binding
B1	binds
B2	binds
B3	binds

What follows are binders tested against T2, HA tagged V20M variant of mouse Cfap410 (endogenous knock-in) (mouse) (UniProt Q8C6G1) in the same assay as above.
T2 sequence: T1 sequence with V20M, P73R

Binder	binding
B1	binds
B2	binds
B3	binds

The binders below were run against T3, HA tagged wild-type mouse Cfap410 (249aa isoform, endogenous knock-in) (mouse) (UniProt Q8C6G1) in the same assay as above.
T3 sequence: T1 sequence with P73R

Binder	binding
B1	binds
B2	binds
B3	binds
